In publication PMC11402786:
Results are given in words; binding and its absence hold for the method and conditions named. In cells and extracts the contact can be indirect. Some results given as binding are weak or reduced against the parent protein; the word gives no strength.

Amino acid sequences for entries named in this document (tags omitted).
UniProt Q6PDM2: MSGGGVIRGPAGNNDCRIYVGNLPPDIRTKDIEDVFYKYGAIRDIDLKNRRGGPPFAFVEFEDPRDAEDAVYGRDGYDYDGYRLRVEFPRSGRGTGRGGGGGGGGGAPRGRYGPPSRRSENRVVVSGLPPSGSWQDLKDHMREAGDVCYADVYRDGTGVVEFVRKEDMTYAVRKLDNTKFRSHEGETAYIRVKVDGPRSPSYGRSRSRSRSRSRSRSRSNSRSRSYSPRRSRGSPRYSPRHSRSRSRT
UniProt P60335: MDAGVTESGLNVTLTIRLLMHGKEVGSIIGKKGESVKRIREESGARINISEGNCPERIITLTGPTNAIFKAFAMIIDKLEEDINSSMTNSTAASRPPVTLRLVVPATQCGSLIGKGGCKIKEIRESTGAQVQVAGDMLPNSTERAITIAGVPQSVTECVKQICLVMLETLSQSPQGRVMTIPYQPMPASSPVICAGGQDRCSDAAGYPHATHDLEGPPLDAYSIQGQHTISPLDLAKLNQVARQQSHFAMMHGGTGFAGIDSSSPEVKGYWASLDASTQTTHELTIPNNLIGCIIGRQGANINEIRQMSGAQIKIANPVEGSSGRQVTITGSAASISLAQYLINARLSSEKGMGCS

Target: SRSF1 (mouse (endogenous in early four-cell embryos)) (UniProt Q6PDM2)
Experiment: co-IP; early four-cell mouse embryos; the text does not tell which protein was precipitated and which was blotted

binding: binds
Substance: PCBP1 (from UniProt P60335 1-356)
